Changes are numbered by the printed parent chain. Names and notes keep the numbering of the source. No constants are given. Whether binding was seen depends on the method and setting. Binding seen in cells or lysates may run through a third protein. Some results given as binding are weak or reduced against the parent protein; the word gives no strength. For some assays here: Tags and fused reporters may be left off the sequences shown. Values belong to the binder of their own block, whether it stands above or below them.
Legend:
[1] = molecular target: VEGFR3 (human (endogenous in TIME cells)) (UniProt P35916); experiment: proximity ligation; Duolink II; transfected TIME cells starved 4 hours, stimulated with HGF or VEGFC, fixed with 4% paraformaldehyde and permeabilised; anti-DDK mouse monoclonal with rabbit polyclonal cMET (C28) or VEGFR3 (C20); spots quantified with ImageJ
[2] = molecular target: cMET (receptor tyrosine kinase, receptor of HGF) (human (endogenous in TIME cells)) (UniProt P08581); experiment: as above
[3] = molecular target: VEGFR3 (human (endogenous in TIME cells)) (UniProt P35916); experiment: co-IP; naive TIME cells serum-starved overnight, stimulated with HGF and VEGFC for 15 minutes; lysates immunoprecipitated with anti-cMET and anti-VEGFR3 antibodies on agarose beads; blots probed with anti-SHIP2
[4] = molecular target: cMET (receptor tyrosine kinase, receptor of HGF) (human (endogenous in TIME cells)) (UniProt P08581); experiment: as above

Amino acid sequences for entries named in this document (tags omitted). Residues count along the entry.
UniProt P35916, residues 25-1363: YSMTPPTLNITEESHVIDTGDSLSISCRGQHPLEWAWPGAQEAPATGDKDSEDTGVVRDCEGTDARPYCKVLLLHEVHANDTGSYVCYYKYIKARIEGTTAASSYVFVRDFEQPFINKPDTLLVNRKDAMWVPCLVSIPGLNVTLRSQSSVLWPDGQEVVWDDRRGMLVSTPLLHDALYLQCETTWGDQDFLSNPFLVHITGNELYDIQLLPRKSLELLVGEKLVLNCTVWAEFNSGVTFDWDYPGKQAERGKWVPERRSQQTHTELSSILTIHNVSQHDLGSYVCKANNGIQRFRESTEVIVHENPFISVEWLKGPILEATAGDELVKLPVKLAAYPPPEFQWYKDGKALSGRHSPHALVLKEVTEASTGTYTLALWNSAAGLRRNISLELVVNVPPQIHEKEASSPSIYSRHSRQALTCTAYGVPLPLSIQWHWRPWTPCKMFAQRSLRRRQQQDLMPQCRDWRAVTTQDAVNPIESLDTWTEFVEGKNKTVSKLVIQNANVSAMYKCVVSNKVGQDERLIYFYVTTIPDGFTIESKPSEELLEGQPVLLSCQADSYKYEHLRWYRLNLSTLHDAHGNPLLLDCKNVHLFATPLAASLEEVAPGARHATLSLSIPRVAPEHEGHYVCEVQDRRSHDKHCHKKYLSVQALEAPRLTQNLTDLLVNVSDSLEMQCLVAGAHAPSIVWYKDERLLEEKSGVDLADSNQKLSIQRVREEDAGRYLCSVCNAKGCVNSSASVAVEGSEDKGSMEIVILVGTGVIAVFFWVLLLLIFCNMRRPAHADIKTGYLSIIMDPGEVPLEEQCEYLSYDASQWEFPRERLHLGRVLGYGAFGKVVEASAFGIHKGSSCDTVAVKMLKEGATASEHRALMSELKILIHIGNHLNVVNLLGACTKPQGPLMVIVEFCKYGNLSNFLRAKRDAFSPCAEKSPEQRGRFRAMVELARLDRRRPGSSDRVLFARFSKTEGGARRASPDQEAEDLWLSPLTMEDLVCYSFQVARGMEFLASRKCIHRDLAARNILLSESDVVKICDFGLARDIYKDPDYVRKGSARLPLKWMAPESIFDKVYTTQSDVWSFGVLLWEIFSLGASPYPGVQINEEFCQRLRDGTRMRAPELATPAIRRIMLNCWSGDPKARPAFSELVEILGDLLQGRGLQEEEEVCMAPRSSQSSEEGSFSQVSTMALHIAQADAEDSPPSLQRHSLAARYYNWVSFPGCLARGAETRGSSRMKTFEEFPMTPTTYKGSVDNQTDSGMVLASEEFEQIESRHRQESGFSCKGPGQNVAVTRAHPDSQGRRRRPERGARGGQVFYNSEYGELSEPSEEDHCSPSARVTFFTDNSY
UniProt P08581, residues 25-1390: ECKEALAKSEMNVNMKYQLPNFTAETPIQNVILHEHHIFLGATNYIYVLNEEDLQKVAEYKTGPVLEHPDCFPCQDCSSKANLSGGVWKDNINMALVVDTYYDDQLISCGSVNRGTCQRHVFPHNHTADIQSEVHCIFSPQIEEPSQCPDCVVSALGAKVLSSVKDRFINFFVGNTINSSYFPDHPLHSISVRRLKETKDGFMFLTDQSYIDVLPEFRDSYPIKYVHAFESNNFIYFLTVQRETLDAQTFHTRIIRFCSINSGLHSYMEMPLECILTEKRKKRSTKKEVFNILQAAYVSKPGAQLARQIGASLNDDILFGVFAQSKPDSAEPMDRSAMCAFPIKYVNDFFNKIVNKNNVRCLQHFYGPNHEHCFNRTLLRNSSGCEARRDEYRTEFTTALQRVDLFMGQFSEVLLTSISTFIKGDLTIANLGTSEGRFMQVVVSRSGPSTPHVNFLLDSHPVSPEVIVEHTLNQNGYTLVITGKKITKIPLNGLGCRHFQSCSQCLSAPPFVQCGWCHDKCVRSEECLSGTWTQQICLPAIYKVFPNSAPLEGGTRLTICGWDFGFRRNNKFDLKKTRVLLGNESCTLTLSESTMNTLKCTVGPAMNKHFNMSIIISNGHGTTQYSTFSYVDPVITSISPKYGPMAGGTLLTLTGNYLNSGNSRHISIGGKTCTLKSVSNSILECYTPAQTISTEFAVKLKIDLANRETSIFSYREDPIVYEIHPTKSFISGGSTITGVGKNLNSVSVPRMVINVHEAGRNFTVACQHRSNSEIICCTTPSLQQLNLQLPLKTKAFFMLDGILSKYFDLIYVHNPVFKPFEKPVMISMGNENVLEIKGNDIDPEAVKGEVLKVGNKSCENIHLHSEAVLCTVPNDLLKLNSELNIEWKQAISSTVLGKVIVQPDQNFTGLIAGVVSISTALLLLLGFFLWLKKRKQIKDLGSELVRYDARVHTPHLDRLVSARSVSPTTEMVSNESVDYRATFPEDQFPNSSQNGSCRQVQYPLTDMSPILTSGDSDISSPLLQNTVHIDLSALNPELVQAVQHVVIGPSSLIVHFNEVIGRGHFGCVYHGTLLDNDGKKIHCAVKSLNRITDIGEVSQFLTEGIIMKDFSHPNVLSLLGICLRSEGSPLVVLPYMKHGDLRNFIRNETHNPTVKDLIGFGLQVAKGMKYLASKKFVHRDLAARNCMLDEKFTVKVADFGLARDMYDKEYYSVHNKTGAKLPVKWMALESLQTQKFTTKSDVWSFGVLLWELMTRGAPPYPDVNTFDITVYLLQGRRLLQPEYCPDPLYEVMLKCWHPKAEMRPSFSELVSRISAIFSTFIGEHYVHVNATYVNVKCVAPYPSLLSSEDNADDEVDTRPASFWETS

- binding [1]: binds
- binding [2]: binds
B1: FLAG-tagged wild type (WT) SHIP2 (SH2-domain containing 5'-inositol phosphatase-2) (enzyme, UniProt O15357-1 1-1258)
chain: MASACGAPGPGGALGSQAPSWYHRDLSRAAAEELLARAGRDGSFLVRDSESVAGAFALCVLYQKHVHTYRILPDGEDFLAVQTSQGVPVRRFQTLGELIGLYAQPNQGLVCALLLPVEGEREPDPPDDRDASDGEDEKPPLPPRSGSTSISAPTGPSSPLPAPETPTAPAAESAPNGLSTVSHDYLKGSYGLDLEAVRGGASHLPHLTRTLATSCRRLHSEVDKVLSGLEILSKVFDQQSSPMVTRLLQQQNLPQTGEQELESLVLKLSVLKDFLSGIQKKALKALQDMSSTAPPAPQPSTRKAKTIPVQAFEVKLDVTLGDLTKIGKSQKFTLSVDVEGGRLVLLRRQRDSQEDWTTFTHDRIRQLIKSQRVQNKLGVVFEKEKDRTQRKDFIFVSARKREAFCQLLQLMKNKHSKQDEPDMISVFIGTWNMGSVPPPKNVTSWFTSKGLGKTLDEVTVTIPHDIYVFGTQENSVGDREWLDLLRGGLKELTDLDYRPIAMQSLWNIKVAVLVKPEHENRISHVSTSSVKTGIANTLGNKGAVGVSFMFNGTSFGFVNCHLTSGNEKTARRNQNYLDILRLLSLGDRQLNAFDISLRFTHLFWFGDLNYRLDMDIQEILNYISRKEFEPLLRVDQLNLEREKHKVFLRFSEEEISFPPTYRYERGSRDTYAWHKQKPTGVRTNVPSWCDRILWKSYPETHIICNSYGCTDDIVTSDHSPVFGTFEVGVTSQFISKKGLSKTSDQAYIEFESIEAIVKTASRTKFFIEFYSTCLEEYKKSFENDAQSSDNINFLKVQWSSRQLPTLKPILADIEYLQDQHLLLTVKSMDGYESYGECVVALKSMIGSTAQQFLTFLSHRGEETGNIRGSMKVRVPTERLGTRERLYEWISIDKDEAGAKSKAPSVSRGSQEPRSGSRKPAFTEASCPLSRLFEEPEKPPPTGRPPAPPRAAPREEPLTPRLKPEGAPEPEGVAAPPPKNSFNNPAYYVLEGVPHQLLPPEPPSPARAPVPSATKNKVAITVPAPQLGHHRHPRVGEGSSSDEESGGTLPPPDFPPPPLPDSAIFLPPSLDPLPGPVVRGRGGAEARGPPPPKAHPRPPLPPGPSPASTFLGEVASGDDRSCSVLQMAKTLSEVDYAPAGPARSALLPGPLELQPPRGLPSDYGRPLSFPPPRIRESIQEDLAEEAPCLQGGRASGLGEAGMSAWLRAIGLERYEEGLVHNGWDDLEFLSDITEEDLEEAGVQDPAHKRLLLDTLQLSK

- binding [3]: binds
- binding [4]: binds
B2: endogenous SHIP2 (enzyme, UniProt O15357-1 1-1258)
chain: B1 chain

- binding [1]: binds
B3: FLAG-tagged T180A SHIP2 mutant (enzyme, UniProt O15357-1 1-1258)
chain: B1 chain with T180A
